Drawing on PubChem BioAssay AID248 (DTP/NCI, 2004), this text covers survivor count and T/C for 16 compounds.

In the experiment the test system is L1210 leukemia ip in BDF1 mice, survival T/C. Put plainly: NCI In Vivo Anticancer Drug Screen. Data for tumor model L1210 Leukemia (intraperitoneal) in B6D2F1 (BDF1) mice. As to conditions: higher T/C = longer survival.
[1] abbreviates: T/C endpoint: mean survival time, dose: 200.0 mg/kg/injection, schedule: Q01DX009 (ip), vehicle: Klucel (hydroxypropylcellulose) (HPC).
The mark [2] stands for this setting: T/C endpoint: mean survival time, dose: 400.0 mg/kg/injection, schedule: Q01DX001 (ip), vehicle: saline.
Setting [3] is: T/C endpoint: mean survival time, dose: 100.0 mg/kg/injection, schedule: Q04DX003 (ip), vehicle: saline with Tween-80.
[4] abbreviates: T/C endpoint: mean survival time, dose: 400.0 mg/kg/injection, schedule: Q04DX003 (ip), vehicle: saline with Tween-80.

The list shows only some results of the screen, not a fair sample: it is rich in T/C values a quarter to a half above the control, in often repeated tests (any T/C) and in doses without a T/C. Further doses and runs are listed elsewhere. T/C: endpoint of the treated group in % of that of the vehicle group. Some entries give survivors of the animals treated and no T/C: the source files T/C as zero there, which appears to mark a toxic dose or a test without result, not a measured value. Some survivor counts are full or nearly so, which does not show that the dose was tolerated: the source hardly ever lists a survival T/C far under the control, and the zero likely stands for such cases as well. Counts of survivors are from the toxicity check (mostly the fifth day) where no day follows; animals may have died later. Schedules are NCI's codes, taken here to give the interval after Q, in days (D) or hours (H), and the number of doses after X. Some entries were tested several times; their values stand side by side, smallest first. For survival time, this PubChem deposit counts one and a half times the control or more as active, and values a quarter to a half above the control carry no call in these data; other NCI protocols may use other cut-offs. Some T/C values are followed by the survivors on the day toxicity was checked, most often the fifth; without a count, all were alive then.

In the case of `CC(=O)O[C@]1(C(C)=O)CC[C@H]2[C@@H]3C[C@H](C)C4=CC(=O)CC[C@]4(C)[C@H]3CC[C@@]21C`, the survivor count is recorded as 4 of 10 (T/C endpoint: median survival time, dose: 128.0 mg/kg/injection, schedule: Q03HX024 (ip), vehicle: Klucel (hydroxypropylcellulose) (HPC)); 6 of 10 (T/C endpoint: median survival time, dose: 256.0 mg/kg/injection, schedule: Q03HX008 (ip), vehicle: Klucel (hydroxypropylcellulose) (HPC)); 0 of 10 (T/C endpoint: median survival time, dose: 256.0 mg/kg/injection, schedule: Q03HX016 (ip), vehicle: Klucel (hydroxypropylcellulose) (HPC)); 1 of 10 (T/C endpoint: median survival time, dose: 256.0 mg/kg/injection, schedule: Q03HX024 (ip), vehicle: Klucel (hydroxypropylcellulose) (HPC)); 5 of 10 (T/C endpoint: median survival time, dose: 2048.0 mg/kg/injection, schedule: Q04DX003 (ip), vehicle: Klucel (hydroxypropylcellulose) (HPC)).
Consider `CCOC(=O)CC1(C)NC(C(=O)O)C(C)(C)S1` (stereo not given), for which the survivor count under setting [1] is 3 of 3.
Consider `FCCBr`, for which the survivor count (T/C endpoint: mean survival time, dose: 25.0 mg/kg/injection, schedule: Q01DX009 (ip), vehicle: water) is reported as 2 of 6; the survivor count (T/C endpoint: mean survival time, dose: 50.0 mg/kg/injection, schedule: Q01DX009 (ip), vehicle: water) is 0 of 6; the survivor count (T/C endpoint: mean survival time, dose: 50.0 mg/kg/injection, schedule: Q04DX003 (ip), vehicle: water) is reported as 3 of 6; the survivor count (T/C endpoint: mean survival time, dose: 100.0 mg/kg/injection, schedule: Q01DX009 (ip), vehicle: water) was 0 of 6; the survivor count (T/C endpoint: mean survival time, dose: 100.0 mg/kg/injection, schedule: Q04DX003 (ip), vehicle: water) was 2 of 6; the survivor count (T/C endpoint: mean survival time, dose: 200.0 mg/kg/injection, schedule: Q04DX003 (ip), vehicle: water) was 3 of 6. Moreover, the survivor count (T/C endpoint: mean survival time, dose: 400.0 mg/kg/injection, schedule: Q04DX003 (ip), vehicle: water) was 1 of 6.
For the compound `COC1=C(Cl)C(=O)C(OC)=C(Cl)C1=O`, the survivor count is, setting by setting: (T/C endpoint: mean survival time, dose: 80.0 mg/kg/injection, schedule: Q01DX001 (ip), vehicle: saline) 0 of 6; (T/C endpoint: mean survival time, dose: 100.0 mg/kg/injection, schedule: Q01DX001 (ip), vehicle: saline) 0 of 4; (T/C endpoint: mean survival time, dose: 200.0 mg/kg/injection, schedule: Q01DX001 (ip), vehicle: saline) 0 of 4; under setting [2], 0 of 4.
As for `CN1C(=O)CC(C(=O)CBr)(c2ccccc2)C1=O` (stereo not given), the survivor count is 0 of 3 and 3 of 3 under setting [3]; 0 of 3 (T/C endpoint: mean survival time, dose: 200.0 mg/kg/injection, schedule: Q04DX003 (ip), vehicle: saline with Tween-80); 0 of 3 under setting [4].
With `Cc1cc2nncn2c2ccccc12`, the survivor count under setting [2] is listed as 2 of 4.
Consider `O=C(Nc1ccc(S(=O)(=O)Nc2ccc(N=Nc3ccc(S(=O)(=O)Nc4nccs4)cc3)cc2)cc1)C(N1CC1)(N1CC1)N1CC1`, for which the survivor count by setting is: (T/C endpoint: mean survival time, dose: 60.0 mg/kg/injection, schedule: Q01DX001 (ip), vehicle: saline) 1 of 6; (T/C endpoint: mean survival time, dose: 75.0 mg/kg/injection, schedule: Q01DX001 (ip), vehicle: saline) 1 of 6; (T/C endpoint: mean survival time, dose: 150.0 mg/kg/injection, schedule: Q01DX001 (ip), vehicle: saline) 0 of 6; (T/C endpoint: mean survival time, dose: 300.0 mg/kg/injection, schedule: Q01DX001 (ip), vehicle: saline) 0 of 6.
Consider `CCCCCCCCCCCCCCCCCOc1ccc2ccccc2c1`, for which, where the note is “T/C endpoint: mean survival time, dose: 400.0 mg/kg/injection, schedule: Q01DX001 (ip), vehicle: saline with Tween-80”, the survivor count is recorded as 6 of 6.
For `Cc1ccc([N+](=O)[O-])cc1NC(=O)Sc1ccccc1O`, the survivor count under setting [3] is reported as 6 of 6.
On to `N#CCc1nc2ccccc2[nH]1`, for which the survivor count was 1 of 3 (T/C endpoint: mean survival time, dose: 200.0 mg/kg/injection, schedule: Q01DX001 (ip), vehicle: Klucel (hydroxypropylcellulose) (HPC)); 0 of 3 (T/C endpoint: mean survival time, dose: 400.0 mg/kg/injection, schedule: Q01DX001 (ip), vehicle: Klucel (hydroxypropylcellulose) (HPC)); 1 of 6 (T/C endpoint: mean survival time, dose: 400.0 mg/kg/injection, schedule: Q04DX003 (ip), vehicle: Klucel (hydroxypropylcellulose) (HPC)).
Consider `Cc1c2oc3c(C)ccc(C(=O)NC4C(=O)NC(C(C)C)C(=O)N5CCCC5C(=O)N(C)CC(=O)N(C)C(C(C)C)C(=O)OC4C)c3nc-2c(C(=O)NC2C(=O)NC(C(C)C)C(=O)N3CCCC3C(=O)N(C)CC(=O)N(C)C(C(C)C)C(=O)OC2C)c(NCCCO)c1=O` (stereo not given), for which the T/C (T/C endpoint: mean survival time, dose: 0.2 mg/kg/injection, schedule: Q01DX009 (ip), vehicle: saline + alcohol) is 129 % of control [7 of 8 alive]; the T/C (T/C endpoint: mean survival time, dose: 0.4 mg/kg/injection, schedule: Q01DX009 (ip), vehicle: saline + alcohol) was 137 % of control; the T/C (T/C endpoint: mean survival time, dose: 1.2 mg/kg/injection, schedule: Q04DX003 (ip), vehicle: saline + alcohol) is 134 % of control; the T/C (T/C endpoint: mean survival time, dose: 2.4 mg/kg/injection, schedule: Q04DX003 (ip), vehicle: saline + alcohol) is 128 % of control; the T/C (T/C endpoint: mean survival time, dose: 2.5 mg/kg/injection, schedule: Q04DX003 (ip), vehicle: saline + alcohol) is 135 % of control; the T/C (T/C endpoint: mean survival time, dose: 6.4 mg/kg/injection, schedule: Q01DX001 (ip), vehicle: saline + alcohol) was 142 % of control. Besides, the T/C reads like this: (T/C endpoint: mean survival time, dose: 8.0 mg/kg/injection, schedule: Q01DX001 (ip), vehicle: saline + alcohol) 143 % of control; (T/C endpoint: mean survival time, dose: 10.0 mg/kg/injection, schedule: Q04DX003 (ip), vehicle: saline + alcohol) 140 % of control; (T/C endpoint: mean survival time, dose: 25.0 micrograms/kg/injection, schedule: Q01DX009 (ip), vehicle: saline + alcohol) 127 % of control; (T/C endpoint: mean survival time, dose: 50.0 micrograms/kg/injection, schedule: Q01DX009 (ip), vehicle: saline + alcohol) 138 % of control; (T/C endpoint: mean survival time, dose: 100.0 micrograms/kg/injection, schedule: Q01DX009 (ip), vehicle: saline + alcohol) 145 % of control; (T/C endpoint: mean survival time, dose: 200.0 micrograms/kg/injection, schedule: Q01DX009 (ip), vehicle: saline + alcohol) 134 % of control. Also, the survivor count (T/C endpoint: mean survival time, dose: 16.0 mg/kg/injection, schedule: Q01DX001 (ip), vehicle: saline + alcohol) was 2 of 8.
Turning to `O=[N+]([O-])c1[nH]c(Br)c(Br)c1Br`, the survivor count is, setting by setting: (T/C endpoint: mean survival time, dose: 6.25 mg/kg/injection, schedule: Q01DX009 (ip), vehicle: Klucel (hydroxypropylcellulose) (HPC)) 1 of 3; (T/C endpoint: mean survival time, dose: 12.5 mg/kg/injection, schedule: Q01DX009 (ip), vehicle: Klucel (hydroxypropylcellulose) (HPC)) 0 of 3; (T/C endpoint: mean survival time, dose: 25.0 mg/kg/injection, schedule: Q01DX009 (ip), vehicle: Klucel (hydroxypropylcellulose) (HPC)) 0 of 3; (T/C endpoint: mean survival time, dose: 50.0 mg/kg/injection, schedule: Q01DX009 (ip), vehicle: Klucel (hydroxypropylcellulose) (HPC)) 0 of 3; (T/C endpoint: mean survival time, dose: 100.0 mg/kg/injection, schedule: Q01DX009 (ip), vehicle: Klucel (hydroxypropylcellulose) (HPC)) 0 of 3; under setting [1], 0 of 3.
On to `CCCCN1CCCC(O)C1` (stereo not given), for which the survivor count (T/C endpoint: mean survival time, dose: 400.0 mg/kg/injection, schedule: Q04DX003 (ip), vehicle: saline) is 0 of 6.
As to `NCCSC(C[N+](=O)[O-])c1ccc2c(c1)OCO2` (stereo not given), the survivor count under setting [4] is given as 2 of 6.
Consider `O=C(Nc1ccccc1)Nc1ccccn1`, for which the survivor count (T/C endpoint: mean survival time, dose: 50.0 mg/kg/injection, schedule: Q04DX003 (ip), vehicle: saline with Tween-80) was 6 of 6.
With `CC[n+]1ccc(Nc2ccc(/C=C/c3ccc4cc(Nc5cc[n+](CC)cc5)ccc4[n+]3CC)cc2)cc1`, the T/C (T/C endpoint: mean survival time, dose: 5.0 mg/kg/injection, schedule: Q01DX009 (ip), vehicle: saline) was 127 and 147 % of control; the T/C (T/C endpoint: mean survival time, dose: 10.0 mg/kg/injection, schedule: Q01DX009 (ip), vehicle: saline) is 144 % of control. In addition, for the setting “T/C endpoint: mean survival time, dose: 20.0 mg/kg/injection, schedule: Q01DX009 (ip), vehicle: saline”, the survivor count is 0 of 6 and 1 of 6.
